Consider 63 molecules from PubChem BioAssay AID2685 (National Center for Advancing Translational Sciences (NCATS), 2010).

The assay can be described thus: qHTS Assay for Lipid Storage Modulators in Drosophila S3 Cells.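 On cell number change: cells counted by Cell Tracker Red CMTPX staining in the red channel.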 To be noted: BODIPY lipid droplet fluorescence, 18-24 h; for cell number change: measured here: cell count max response, cells fed with added oleic acid. The procedure, abridged:
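Drosophila S3 cells loaded with oleic acid (400 uM, as added) and compounds at several concentrations; lipid droplets imaged by 488-nm laser-scanning cytometry, 500–530 nm intensity and object ratio to cell channel. Percent activity normalized to 20 uM Triacsin C.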

The mark [1] stands for this setting: measured here: lipid fluorescence (Fed channel) AC50, cells fed with added oleic acid.
The mark [2] stands for this setting: measured here: cell number channel AC50, cells fed with added oleic acid.

The list shows a part of the results. The main result of the screen is listed elsewhere. These columns were measured beside it and carry no call. Compounds called inactive in the main read-out are mostly missing here. Words in brackets tell the shape of the fitted curve; partial curves, single points and poor fits give uncertain potencies.

With `CC(C)c1ccc(/C=N/NC(=O)CC(=O)NCc2ccccc2)cc1`, the cell number change was 16.7%.

Regarding `Cc1cc(C)c(S(=O)(=O)Nc2cnc3ccccc3c2)c(C)c1`, the cell number change amounted to 4.17%.

For the molecule `O=C(O)CCSc1nnc(COc2cccc3cccnc23)n1-c1ccccc1`, the cell number change was -21%.

Usually AC50 stands for the midpoint of the concentration-response curve, whichever way the signal moves. A higher AC50 goes with activity only at high concentration. Turning to `CCC1=C2CC[C@H]3C(=O)N(c4ccccc4)C(=O)[C@H]3[C@H]2[C@@]2(C)C(=NCc3ccccc3)OC(=O)N2C1=O`, the cell number change was -27.4%. Also, under setting [1], the concentration at half-maximal activity (AC50) is 0.82 µM [falling, full curve].

In the case of `CCc1nnc(NC(=O)CCC(=O)N2CCN(c3cc(C)ccc3C)CC2)s1`, the cell number change is -22.9%. In addition, the AC50 under setting [1] is 0.13 µM [falling, full curve, poor fit].

For `Cc1ccc(S(=O)(=O)NCCc2cc3ccc(C)cc3[nH]c2=O)cc1`, the cell number change was -9.21%. Also, the AC50 under setting [1] was 12.6 µM [falling, single point].

For `COc1cc(/C=N/NC(=O)COc2ccc(Cl)cc2)ccc1OS(=O)(=O)c1ccc(C)cc1`, the cell number change worked out at 7.47%. In addition, the AC50 under setting [1] was 0.92 µM [rising, full curve].

As to `Cc1ccc(S(=O)(=O)Nc2ccc(Cl)cc2)cc1NC(=O)c1cc2c(s1)CCCC2`, the cell number change was found to be 22%. Moreover, the half-maximal activity concentration (AC50) under setting [2] is 0.291 µM [rising, single point]. Moreover, under setting [1], the AC50 was 0.411 µM [rising, full curve, poor fit].

In the case of `CCOc1cc(/C=C2\SC(=S)N(Nc3ccccc3)C2=O)ccc1O`, the cell number change was -96.1%. Also, the AC50 under setting [2] was 29.1 µM [falling, single point]. For the same molecule, under setting [1], the AC50 was 29.1 µM [falling, single point].

With `c1ccc(SCc2nc(-c3ccncc3)no2)cc1`, the cell number change was -24.6%. Further, under setting [1], the AC50 was 3.26 µM [rising, partial curve].

As for `Cc1ccc2[nH]c(=O)c(CNS(=O)(=O)c3ccccc3)c(-c3ccccc3)c2c1`, the cell number change was found to be 6.17%. Moreover, the AC50 under setting [1] is 6.51 µM [rising, single point].

Regarding `COc1cc(/C=N/O)cc(Br)c1OCc1cccc(Cl)c1`, the cell number change is -30.3%. In addition, under setting [2], the AC50 was 1.84 µM [falling, full curve, poor fit]. The AC50 under setting [1] was 2.59 µM [falling, partial curve].

Consider `O=C(COC(=O)c1cc(=O)[nH]c2ccccc12)NCc1ccc(Cl)cc1`, for which the cell number change was -28.6%. The AC50 under setting [1] was 0.82 µM [falling, single point].

Take `Cc1ccc(-c2n[nH]c(=O)c3ccccc23)cc1S(=O)(=O)N(C)CCO`: the cell number change amounted to 25.5%.

On to `Cc1ccc(C2=NCCn3c2c2ccc(C(F)(F)F)cc2[n+]3[O-])cc1`, for which the cell number change came to 13.3%. Moreover, the AC50 under setting [1] is 32.6 µM [rising, single point].

`CCn1c(-c2ccc(N)cc2)nc2ccccc21`: the cell number change is -25.3%. Moreover, the AC50 under setting [1] was 23.1 µM [falling, single point].

For `COc1cc(C(=O)NCCOc2ccccc2C)cc(OC)c1OC`, the cell number change came to 16.9%.

On to `CCOc1ccc(C(=O)NCC(=O)N2CCC(C)CC2)cc1OCC`, for which the cell number change came to 123%. For the same molecule, the AC50 under setting [2] was 0.0291 µM [rising, full curve, poor fit].

As for `Cc1ccc(OCC(=O)NCc2ccco2)cc1C`, the cell number change is -19%.

In the case of `Cc1cc(C(=O)NCCCN2CC(C)CC(C)C2)n(-c2ccccc2)n1` (stereo not drawn), the cell number change was determined as 1.45%.

For the molecule `CN(CC(=O)Nc1cccc(F)c1)C(=O)CCSc1ccc(F)cc1`, the cell number change came to 132%. Also, the half-maximal activity concentration (AC50) under setting [2] was 18.4 µM [rising, partial curve].

As to `O=C(Cc1ccccc1)NNc1ccc2ccccc2c1`, the cell number change is 2.59%.

Regarding `CCCN1CCN(S(=O)(=O)c2cn(C)nc2C)CC1`, the cell number change was 3.04%. The AC50 under setting [1] was 29.1 µM [rising, single point].

Turning to `CCCCOCCOCCOCCCC`, the cell number change was -11.4%. For the same molecule, the AC50 under setting [1] is 3.26 µM [rising, partial curve].

For `CCC(=O)N/N=C/c1ccc(OS(=O)(=O)c2ccccc2)cc1`, the cell number change stood at 10.7%. Besides, the AC50 under setting [1] was 1.3 µM [rising, partial curve, poor fit].

On to `Cc1cccc(N2CN=C3SCC(=O)N3C2)c1`, for which the cell number change came out at 26.1%. In addition, under setting [1], the AC50 was 0.13 µM [rising, full curve, poor fit].

Turning to `COc1ccc(/C=C(\NC(=O)c2ccc(OC)c(OC)c2)C(=O)N2CCN(C)CC2)cc1`, the cell number change is -10.3%.

In the case of `CCCCNC(=O)C(CC)(ONc1ccccc1C(F)(F)F)c1ccccc1` (stereo not drawn), the cell number change was -84.2%. Moreover, under setting [2], the concentration at half-maximal activity (AC50) was 18.4 µM [falling, partial curve]. In addition, the AC50 under setting [1] is 16.4 µM [falling, single point].

For `Nc1nnnn1/N=C/C=C/c1ccccc1`, the cell number change is -38.8%. For the same molecule, the AC50 under setting [2] was 14.6 µM [falling, partial curve, poor fit]. The AC50 under setting [1] was 29.1 µM [falling, single point].

On to `COC(=O)c1ccc2c(c1)SC1=C(CCCC1=O)N2`, for which the AC50 under setting [2] is 6.51 µM [rising, single point] and the AC50 under setting [1] was 4.61 µM [rising, single point].

As for `CCOC(=O)NC(Nc1nnc(SCC)s1)(C(F)(F)F)C(F)(F)F`, the cell number change was -6%. Besides, under setting [1], the AC50 was 29.1 µM [falling, single point].

Consider `CC(=O)c1ccc(-n2c(CCC(=O)O)ccc2-c2ccccc2)cc1`, for which the cell number change was 22.8%. Further, the AC50 under setting [1] was 0.0731 µM [rising, full curve, poor fit].

With `O=C(C1CC1)N1N=C(C2CCCCC2)CC1(O)C(F)(F)F` (stereo not drawn), the cell number change is -18.8%.

For `Cc1ccc2[nH]c(=O)c(CN3CCCCC3)c(-c3ccccc3)c2c1`, the cell number change was determined as 5.05%. Moreover, the AC50 under setting [1] was 4.11 µM [falling, single point].

Turning to `Cc1cc(C(=O)NC2Cc3ccccc3C2)c(C)o1`, the cell number change was -15.2%.

For `Cc1ccc(CNC(=O)C2CCN(S(=O)(=O)c3cccc4nonc34)CC2)cc1`, the cell number change is 54.8%. Further, the AC50 under setting [2] was 10.3 µM [rising, partial curve].

For the molecule `COc1cc(/C=N/Nc2nncn2/N=C/c2ccc(O)c(OC)c2)ccc1O`, the cell number change worked out at 11.6%. Further, the AC50 under setting [2] is 2.06 µM [rising, single point].

Consider `Cc1cc(C)c(NC(=O)C2CC(=O)N(c3ccc4c(c3)OCCO4)C2)c(C)c1` (stereo not drawn), for which the AC50 under setting [2] is 0.206 µM [rising, partial curve] and the AC50 under setting [1] was 0.82 µM [rising, partial curve].

With `C=C(C)c1cccc(C(C)(C)NC(=O)NC2CCN(Cc3ccccc3)CC2)c1`, the cell number change amounted to 18.7%. For the same molecule, under setting [1], the AC50 is 10.3 µM [rising, partial curve, poor fit].

`Cc1ccc(S(=O)(=O)N/N=C/c2ccc(OCC(=O)Nc3ccccc3Cl)cc2)cc1`: the cell number change was -18.1%.

On to `Cc1ccc(C(=O)COC(=O)CNC(=O)COc2ccccc2C)cc1C`, for which the cell number change was 1.41%. Also, under setting [2], the AC50 was 1.3 µM [falling, partial curve]. The AC50 under setting [1] was 0.517 µM [falling, single point].

Take `O=C(Nc1ccc(Cl)cc1)c1csc(-c2ccccc2)n1`: the AC50 under setting [1] is 0.58 µM [falling, single point].

With `O=C(NNS(=O)(=O)c1ccccc1)c1ccncc1`, the cell number change was determined as 3.09%.

Consider `COc1ccc(-c2cc(CCCC(=O)N3CCN(c4ccc(OC)cc4)CC3)no2)cc1`, for which the cell number change came to 0.991%. Moreover, under setting [1], the AC50 was 0.00461 µM [falling, full curve, poor fit].

For the molecule `CCN(C(=O)CSc1nnc(Cc2cccc3ccccc23)n1N)C1CCS(=O)(=O)C1` (stereo not drawn), under setting [1], the AC50 was 0.92 µM [rising, full curve, poor fit].

For `Cc1cc(C)n2cc(-c3ccc(Cl)cc3)c(C(=O)O)c2n1`, the cell number change is -15%. Further, the AC50 under setting [2] is 6.51 µM [falling, single point]. The AC50 under setting [1] was 6.51 µM [falling, single point].

Take `CN(C)c1cc(N/N=C/c2ccccc2C(F)(F)F)nc(N(C)C)n1`: the cell number change was 0.549%. For the same molecule, the AC50 under setting [1] was 29.1 µM [falling, single point].

For `O=C(Nc1ccccc1)NC1CCN(CCCN2C(=O)c3ccccc3C2=O)CC1`, the cell number change was found to be 2.33%.

`Cc1ccc(NC(=O)CC2Oc3ccc(C)cc3NC2=O)cc1` (stereo not drawn): the cell number change is -7%. Besides, under setting [1], the half-maximal activity concentration (AC50) was 0.0731 µM [falling, full curve, poor fit].

As for `Cc1ccc2c(c1)nnn2C1CCN(CC(=O)N2CCN(c3ccc(F)cc3)CC2)CC1`, the AC50 under setting [1] was 6.51 µM [rising, partial curve].

Take `Nn1c(SCC(=O)N2CCc3ccccc3C2)nnc1-c1cccs1`: the cell number change worked out at 7.9%. The AC50 under setting [1] is 4.61 µM [rising, full curve].

Regarding `O=C(NNC(=O)c1cccc(O)c1)Nc1ccc([N+](=O)[O-])cc1`, the cell number change is -41%. In addition, the AC50 under setting [2] was 25.9 µM [falling, single point]. Under setting [1], the concentration at half-maximal activity (AC50) was 25.9 µM [falling, partial curve].

As for `CCn1c(C)c(C(C)=O)cc(C#N)c1=O`, the cell number change worked out at 11.2%. The AC50 under setting [2] is 0.00461 µM [rising, full curve, poor fit].

As for `O=[N+]([O-])c1ccc2[nH]nc(-c3ccccc3)c2c1`, the cell number change amounted to 37.3%. In addition, the half-maximal activity concentration (AC50) under setting [2] was 11.6 µM [rising, single point]. In addition, under setting [1], the AC50 is 0.326 µM [rising, full curve].

On to `Cn1nc(-c2ccccc2)c2nc3ccccc3nc21`, for which the cell number change is -15.4%. Also, under setting [1], the AC50 is 1.84 µM [rising, partial curve].

For the molecule `C/C(=N\O)c1ccc2[nH]ccc2c1`, the cell number change was -2.87%.

For `Cc1nn(Cc2ccccc2)c(=O)c2nn(-c3ccc(Cl)cc3)c(C)c12`, the cell number change came to 3.94%. Further, under setting [2], the AC50 is 6.51 µM [falling, single point]. Besides, the AC50 under setting [1] is 6.51 µM [falling, single point].

For `CSc1nc2ccc(NC(=O)CSc3nnc(N)s3)cc2s1`, the cell number change is 49.8%. The AC50 under setting [2] is 9.2 µM [rising, partial curve].

Turning to `COc1cc(C(=O)OCC(=O)c2ccc(S(=O)(=O)N3CCCCC3)cc2)cc(OC)c1OC`, the cell number change was 4.4%.

For `Cc1cccc(CN2CCN(C(=O)CN(C)C(C)C(=O)Nc3ccc(C(N)=O)cc3)CC2)c1` (stereo not drawn), the cell number change was -14.7%. For the same molecule, the AC50 under setting [2] is 0.058 µM [falling, full curve, poor fit]. For the same molecule, the AC50 under setting [1] is 0.116 µM [falling, full curve, poor fit].

Turning to `CC(C)=CCC/C(C)=C/C=N/NC(=O)c1ccccc1[N+](=O)[O-]`, the cell number change worked out at 1.28%. Further, the AC50 under setting [1] is 7.31 µM [falling, single point].

As to `O=S(=O)(c1cc(Cl)ccc1Cl)n1nnc2ccccc21`, the cell number change amounted to 43%. Also, the AC50 under setting [2] is 29.1 µM [rising, single point].

In the case of `COc1cccc(NC(=O)CN(c2cccc(F)c2)S(C)(=O)=O)c1`, the cell number change worked out at 13.8%. The AC50 under setting [1] is 6.51 µM [rising, single point].
